Experimental data from article PMC6918076.
These are yes or no findings as the source states them, for the method shown. In cells and extracts the contact can be indirect. Some entries that bind do so weakly or less than the wild type.

The chains behind the UniProt entries cited, without tags or fusion partners. Residues count along the entry.
UniProt P35869, residues 11-848: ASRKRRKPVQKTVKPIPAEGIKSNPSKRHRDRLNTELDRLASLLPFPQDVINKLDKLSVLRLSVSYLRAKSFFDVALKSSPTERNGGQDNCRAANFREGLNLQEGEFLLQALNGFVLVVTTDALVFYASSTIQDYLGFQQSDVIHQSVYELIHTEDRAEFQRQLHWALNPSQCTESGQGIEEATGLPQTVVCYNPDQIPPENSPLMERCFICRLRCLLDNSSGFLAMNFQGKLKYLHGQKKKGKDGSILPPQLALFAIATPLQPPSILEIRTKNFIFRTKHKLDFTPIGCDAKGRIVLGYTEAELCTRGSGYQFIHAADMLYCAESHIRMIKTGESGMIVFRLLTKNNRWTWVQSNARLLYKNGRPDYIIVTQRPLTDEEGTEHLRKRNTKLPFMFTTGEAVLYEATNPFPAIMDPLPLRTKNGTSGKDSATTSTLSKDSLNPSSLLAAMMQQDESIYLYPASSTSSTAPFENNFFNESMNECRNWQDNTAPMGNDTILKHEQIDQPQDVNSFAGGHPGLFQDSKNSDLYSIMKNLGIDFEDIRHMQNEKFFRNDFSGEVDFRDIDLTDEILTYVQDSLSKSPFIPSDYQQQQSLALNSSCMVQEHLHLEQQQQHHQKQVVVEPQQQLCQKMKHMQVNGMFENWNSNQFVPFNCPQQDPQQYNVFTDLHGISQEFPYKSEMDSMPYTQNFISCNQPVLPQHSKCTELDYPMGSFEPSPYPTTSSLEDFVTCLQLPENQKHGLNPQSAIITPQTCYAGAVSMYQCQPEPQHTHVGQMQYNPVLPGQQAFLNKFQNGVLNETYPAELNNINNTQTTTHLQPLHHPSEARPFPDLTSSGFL
UniProt O60563: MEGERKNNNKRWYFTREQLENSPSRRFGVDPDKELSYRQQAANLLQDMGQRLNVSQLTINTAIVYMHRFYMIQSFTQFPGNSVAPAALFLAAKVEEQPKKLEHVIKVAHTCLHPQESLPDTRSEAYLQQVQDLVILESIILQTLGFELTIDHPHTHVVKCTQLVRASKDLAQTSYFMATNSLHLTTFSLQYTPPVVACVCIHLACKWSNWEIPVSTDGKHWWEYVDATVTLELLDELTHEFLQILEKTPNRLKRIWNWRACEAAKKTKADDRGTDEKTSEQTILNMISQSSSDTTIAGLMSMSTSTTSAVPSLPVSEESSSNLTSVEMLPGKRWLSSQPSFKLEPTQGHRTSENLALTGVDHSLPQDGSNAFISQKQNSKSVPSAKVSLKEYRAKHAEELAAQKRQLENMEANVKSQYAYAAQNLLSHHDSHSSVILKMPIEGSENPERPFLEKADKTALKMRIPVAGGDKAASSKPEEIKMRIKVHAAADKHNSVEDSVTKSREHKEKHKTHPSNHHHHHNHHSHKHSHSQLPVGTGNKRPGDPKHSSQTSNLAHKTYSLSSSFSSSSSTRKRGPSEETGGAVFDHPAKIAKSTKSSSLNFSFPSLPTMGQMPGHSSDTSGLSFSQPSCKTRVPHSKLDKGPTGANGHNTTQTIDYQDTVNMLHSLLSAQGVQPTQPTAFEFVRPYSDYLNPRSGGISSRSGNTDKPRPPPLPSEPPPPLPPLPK
UniProt P27540: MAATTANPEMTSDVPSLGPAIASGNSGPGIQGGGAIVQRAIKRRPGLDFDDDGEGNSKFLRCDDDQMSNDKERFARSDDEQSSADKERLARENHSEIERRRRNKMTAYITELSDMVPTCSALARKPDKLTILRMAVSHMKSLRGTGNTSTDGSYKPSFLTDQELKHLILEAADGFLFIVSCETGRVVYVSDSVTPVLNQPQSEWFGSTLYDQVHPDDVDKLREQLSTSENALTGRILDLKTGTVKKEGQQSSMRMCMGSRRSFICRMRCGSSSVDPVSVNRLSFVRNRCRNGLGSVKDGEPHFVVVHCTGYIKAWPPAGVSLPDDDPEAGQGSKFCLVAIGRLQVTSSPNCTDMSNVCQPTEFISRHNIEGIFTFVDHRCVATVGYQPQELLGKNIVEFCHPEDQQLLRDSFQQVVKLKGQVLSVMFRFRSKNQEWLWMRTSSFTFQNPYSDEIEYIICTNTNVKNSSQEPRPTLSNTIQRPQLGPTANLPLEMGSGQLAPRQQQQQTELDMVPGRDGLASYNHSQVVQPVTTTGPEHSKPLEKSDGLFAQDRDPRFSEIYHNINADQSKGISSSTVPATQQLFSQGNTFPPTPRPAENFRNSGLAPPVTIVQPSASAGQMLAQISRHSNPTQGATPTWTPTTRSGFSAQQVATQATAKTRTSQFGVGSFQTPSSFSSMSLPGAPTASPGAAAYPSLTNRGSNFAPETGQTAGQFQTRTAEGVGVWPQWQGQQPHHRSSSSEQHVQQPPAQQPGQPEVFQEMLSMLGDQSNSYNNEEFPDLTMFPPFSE

How the values were obtained:
[1] = target: aryl hydrocarbon receptor (AHR) (human (endogenous in HEK293T)) (UniProt P35869); assay: co-IP
[2] = target: cyclin T1 (CycT1), component of the P-TEFb complex (human (endogenous in HEK293T)) (UniProt O60563); assay: co-IP

Substance	binding [1]	binding [2]
AHR nuclear translocator (ARNT) (from UniProt P27540 1-789)	binds	–
aryl hydrocarbon receptor (AHR) (from UniProt P35869 11-848)	–	binds
